The source of these data is publication PMC10904452.

Amino acid sequences for entries named in this document (tags omitted). A change or cut given only in a name is not applied to a line headed by its entry.
UniProt Q9JHJ7: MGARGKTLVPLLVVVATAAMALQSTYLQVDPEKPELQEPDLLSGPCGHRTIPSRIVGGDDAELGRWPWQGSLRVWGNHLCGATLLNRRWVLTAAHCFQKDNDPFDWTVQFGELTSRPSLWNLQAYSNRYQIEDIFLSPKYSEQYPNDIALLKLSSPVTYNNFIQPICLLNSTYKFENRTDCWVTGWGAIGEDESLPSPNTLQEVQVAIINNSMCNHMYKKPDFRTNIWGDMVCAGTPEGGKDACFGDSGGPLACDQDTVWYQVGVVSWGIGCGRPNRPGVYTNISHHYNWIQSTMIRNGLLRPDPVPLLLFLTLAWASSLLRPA
UniProt Q60718: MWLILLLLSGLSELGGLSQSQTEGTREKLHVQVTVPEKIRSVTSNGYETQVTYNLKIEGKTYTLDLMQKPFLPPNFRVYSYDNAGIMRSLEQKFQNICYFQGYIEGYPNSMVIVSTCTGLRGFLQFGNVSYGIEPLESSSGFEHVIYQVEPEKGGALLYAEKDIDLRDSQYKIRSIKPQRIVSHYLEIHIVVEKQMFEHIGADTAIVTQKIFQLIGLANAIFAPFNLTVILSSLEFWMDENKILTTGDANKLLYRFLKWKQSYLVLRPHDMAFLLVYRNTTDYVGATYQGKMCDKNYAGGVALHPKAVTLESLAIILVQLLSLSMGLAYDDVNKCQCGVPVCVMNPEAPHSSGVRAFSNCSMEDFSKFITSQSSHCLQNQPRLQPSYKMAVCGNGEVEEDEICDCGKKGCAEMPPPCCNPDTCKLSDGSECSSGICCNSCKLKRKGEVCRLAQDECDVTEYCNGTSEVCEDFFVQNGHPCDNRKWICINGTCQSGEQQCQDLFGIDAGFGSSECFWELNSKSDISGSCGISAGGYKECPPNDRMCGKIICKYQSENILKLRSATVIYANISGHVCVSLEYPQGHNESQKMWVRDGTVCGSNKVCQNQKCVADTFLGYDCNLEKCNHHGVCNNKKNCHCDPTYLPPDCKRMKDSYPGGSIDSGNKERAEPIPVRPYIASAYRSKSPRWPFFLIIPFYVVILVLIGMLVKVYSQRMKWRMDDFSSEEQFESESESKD

No constants are given. Whether binding was seen depends on the method and setting. In cells and extracts the contact can be indirect. Binding can be weak; no strength is given. Where a sequence is shown, tags or fusion partners need not be part of it.

The target in assay [1] is HA-tagged PRSS21 (PRSS21-HA) (mouse) (UniProt Q9JHJ7). Briefly: co-IP; HEK293T cells co-transfected, harvested 48 h after transfection; NETN lysis buffer (20 mM Tris-HCl pH 7.5, 100 mM NaCl, 6 mM EDTA, 0.5% NP-40); 1 mg protein with 50 ul anti-HA, anti-GFP, anti-FLAG or anti-Myc mAb magnetic beads overnight at 4 C; five washes; western blotting; both directions of precipitation. For orientation: Immunoblotting shows a protein as a band on a membrane.

The target in assay [2] is FLAG-tagged ADAM2 (ADAM2-FLAG) (mouse) (UniProt Q60718). Described as above.

B1: EGFP-tagged SPEM2 (SPEM2-EGFP fusion protein) (protein, UniProt Q8C5U4 1-503)
chain: MENQLWQNTLRCCEQYQESPQDAENILFLLLGLIILVNISINVATAMWQGLQNAIDKMIFWMNQKTEVVQVTECPPKEPQPANVQDVHIHCILDPVQVKMAQPTQCSSSSSHYFCKRSNDRRSRRRYGYQQGNLQIHQSSQQQGCLSHQQRLRNRPLSRGYPPFRKQPQGHKMSQMRPMPFFDMEDRDSLPEGHSCPHAKQPRRGWGSLCKPVRLASNVGLWGRQGGILASLPLPSLYLSPELRRLPKRVEAKSELRLQGFGPHYSQSRIWGTVEAEQWASSPPPPRRLLPNPSWVTVGYSSFPSGGHIPYDARDQWRRGTEGCEPPPAFVPRNPREVQGYRDHNSQAHRQNFSSHTHSQPNHSPPQSMGHVGYSSRESHEVRRRAPDWIEVFPSRHPLTTSTSLTALGEASYQRAPPASSGLMIPHSSQRLAEVQISDPTPPPTTFVPLSRNPGGNATYQVYDSLELKRQVQENRGRASSLPPPSTSASRPSLHRSRTGKLN
For B1, the binding entry in assay [1] and in assay [2] was “binds” in each case.
